Part of at least one peptide drawing is inferred or uncertain, most often the ends.
Assays:
[1] = Pharmacokinetics of SP-43 and SP-42 in Rat following IV dose
Text: Table printed on a drawing sheet, Figure 20
Title: Pharmacokinetics of SP-43 and SP-42 in Rat following IV dose
The patent's description of the figure: FIG. 20 illustrates the pharmacokinetic properties of SP-42 and SP-43 peptidomimetic macrocycles in rats.
First reader's note: Pharmacokinetic parameters in rat after an IV dose; the table stands under a concentration-time plot that is not copied.

## CC(=O)N[C@@H](CCC(N)=O)C(=O)N[C@@H](CO)C(=O)N[C@@H](CCC(N)=O)C(=O)N[C@@H](CCC(N)=O)C(=O)N[C@H](C(=O)N[C@@H](Cc1ccccc1)C(=O)N[C@@H]1CCCCCCC=CCCC[C@@H](C(=O)N[C@@H](CCC(N)=O)C(=O)N[C@@H](CC(N)=O)C(N)=O)NC(=O)[C@H](CC(C)C)NC(=O)[C@H](CC(C)C)NC(=O)[C@H](CCCNC(=N)N)NC(=O)[C@H](Cc2c[nH]c3ccccc23)NC(=O)[C@H](CC(C)C)NC(=O)[C@H](CC(N)=O)NC1=O)[C@@H](C)O [SP-42, Ac-QSQQTF#r8NLWRLL#QN-NH2]
[1]
  AUC,inf: 34000 ng·h/mL
  Cl: 1.47 mL/min/kg
  T1/2: 1.2 h
  Vss: 0.098 L/kg
  Vz: 0.539 L/kg
Figure 15
  K1 min^-1: 0.130 min⁻¹
  K2 min^-1: 0.0042 min⁻¹
  half-life^1: 5.3 min
  half-life^2: 2.83 h
